Our source for the binding values is paper PMC8084336.

The target of this test is FLAG-tagged HCV JFH1 NS5A (genotype 2a) (hepatitis C virus JFH1 (genotype 2a)). Put plainly: co-IP; FLAG-specific immunoprecipitation (anti-FLAG M2 affinity gel, 1 h, 4°C) from lysates of lentivirally transduced cells; NP-40 lysis buffer (50 mM Tris pH 7.4, 150 mM NaCl, 1% NP-40); lysates pre-incubated with 100 U/ml RNaseOUT or 100 μg/ml RNase A for 45 min at 4°C; immunoblot.

No constants are given. Whether binding was seen depends on the method and setting. Binding seen in cells or lysates may run through a third protein.

B1: RNA helicase MOV10 (protein, UniProt Q9HCE1 1-1003)
chain: MPSKFSCRQLREAGQCFESFLVVRGLDMETDRERLRTIYNRDFKISFGTPAPGFSSMLYGMKIANLAYVTKTRVRFFRLDRWADVRFPEKRRMKLGSDISKHHKSLLAKIFYDRAEYLHGKHGVDVEVQGPHEARDGQLLIRLDLNRKEVLTLRLRNGGTQSVTLTHLFPLCRTPQFAFYNEDQELPCPLGPGECYELHVHCKTSFVGYFPATVLWELLGPGESGSEGAGTFYIARFLAAVAHSPLAAQLKPMTPFKRTRITGNPVVTNRIEEGERPDRAKGYDLELSMALGTYYPPPRLRQLLPMLLQGTSIFTAPKEIAEIKAQLETALKWRNYEVKLRLLLHLEELQMEHDIRHYDLESVPMTWDPVDQNPRLLTLEVPGVTESRPSVLRGDHLFALLSSETHQEDPITYKGFVHKVELDRVKLSFSMSLLSRFVDGLTFKVNFTFNRQPLRVQHRALELTGRWLLWPMLFPVAPRDVPLLPSDVKLKLYDRSLESNPEQLQAMRHIVTGTTRPAPYIIFGPPGTGKTVTLVEAIKQVVKHLPKAHILACAPSNSGADLLCQRLRVHLPSSIYRLLAPSRDIRMVPEDIKPCCNWDAKKGEYVFPAKKKLQEYRVLITTLITAGRLVSAQFPIDHFTHIFIDEAGHCMEPESLVAIAGLMEVKETGDPGGQLVLAGDPRQLGPVLRSPLTQKHGLGYSLLERLLTYNSLYKKGPDGYDPQFITKLLRNYRSHPTILDIPNQLYYEGELQACADVVDRERFCRWAGLPRQGFPIIFHGVMGKDEREGNSPSFFNPEEAATVTSYLKLLLAPSSKKGKARLSPRSVGVISPYRKQVEKIRYCITKLDRELRGLDDIKDLKVGSVEEFQGQERSVILISTVRSSQSFVQLDLDFNLGFLKNPKRFNVAVTRAKALLIIVGNPLLLGHDPDWKVFLEFCKENGGYTGCPFPAKLDLQQGQNLLQGLSKLSPSTSGPHSHDYLPQEREGEGGLSLQVEPEWRNEL
For B1, the binding result is recorded as “no binding”.
